According to PubChem BioAssay AID330 (DTP/NCI, 2004):
The list shows only some results of the screen, not a fair sample: it gathers tests that were run many times, whatever their T/C, doses with no T/C, and many T/C values between a quarter and a half above the control. Further doses and runs are listed elsewhere. T/C gives the treated animals as a percentage of the vehicle group. Some doses have a count of surviving animals in place of a T/C: the source files T/C as zero there, which appears to mark a toxic dose or a test without result, not a measured value. Some survivor counts are full or nearly so, which does not show that the dose was tolerated: the source hardly ever lists a survival T/C far under the control, and the zero likely stands for such cases as well. Survivors were counted at the toxicity check, usually on the fifth day, unless a day is given; later deaths do not show. Schedule codes are those of the source, taken here to give the interval after Q, in days (D) or hours (H), and the number of doses after X. Brackets with × say how often a value occurs here. Some entries were tested several times; the values are given in rising order. For survival time, the PubChem record calls one and a half times the control and up active, and a quarter to a half above the control has no call in these data; cut-offs in other NCI protocols can differ. Some T/C values carry the count of animals alive at the toxicity check (mostly the fifth day); without a count, all were alive then.

System: P388 leukemia ip, CD2F1 mice, survival T/C
Test: NCI In Vivo Anticancer Drug Screen. Data for tumor model P388 Leukemia (intraperitoneal) in CD2F1 (CDF1) mice
Settings: T/C endpoint: median survival time, higher T/C = longer survival
[1] = dose: 200.0 mg/kg/injection, schedule: Q01DX005 (ip), vehicle: saline with Tween-80

## O=C(O)Cc1cccc2c(=O)cc(-c3ccccc3)oc12
dose: 30.0 mg/kg/injection, schedule: Q01DX009 (ip), vehicle: sodium bicarbonate, evaluated on day 30
  T/C: 103 and 119 % of control
dose: 30.0 mg/kg/injection, schedule: Q01DX009 (ip), vehicle: sodium bicarbonate, evaluated on day 45
  T/C: 111, 126, 128 % of control (2×)
dose: 30.0 mg/kg/injection, schedule: Q01DX009 (ip), vehicle: sodium bicarbonate, evaluated on day 60
  T/C: 121 % of control
dose: 44.0 mg/kg/injection, schedule: Q01DX009 (ip), vehicle: sodium bicarbonate, evaluated on day 30
  T/C: 150 % of control
dose: 44.0 mg/kg/injection, schedule: Q01DX009 (ip), vehicle: sodium bicarbonate, evaluated on day 45
  T/C: 122, 130, 137, 140, 141, 146, 147, 156 % of control
dose: 44.0 mg/kg/injection, schedule: Q01DX009 (ip), vehicle: sodium bicarbonate, evaluated on day 60
  T/C: 120, 123, 134, 137 % of control
dose: 67.0 mg/kg/injection, schedule: Q01DX005 (ip), vehicle: saline
  T/C: 137 % of control
dose: 67.0 mg/kg/injection, schedule: Q01DX009 (ip), vehicle: saline, evaluated on day 30
  T/C: 119 % of control
dose: 67.0 mg/kg/injection, schedule: Q01DX009 (ip), vehicle: saline, evaluated on day 44
  T/C: 217 % of control
dose: 67.0 mg/kg/injection, schedule: Q01DX009 (ip), vehicle: saline, evaluated on day 45
  T/C: 153 % of control
dose: 67.0 mg/kg/injection, schedule: Q01DX009 (ip), vehicle: saline, evaluated on day 60
  T/C: 147 % of control
dose: 67.0 mg/kg/injection, schedule: Q01DX009 (ip), vehicle: sodium bicarbonate, evaluated on day 30
  T/C: 129 and 180 % of control
dose: 67.0 mg/kg/injection, schedule: Q01DX009 (ip), vehicle: sodium bicarbonate, evaluated on day 45
  T/C: 153, 160, 161, 165, 169, 171, 176, 182, 195 % of control
dose: 67.0 mg/kg/injection, schedule: Q01DX009 (ip), vehicle: sodium bicarbonate, evaluated on day 60
  T/C: 150, 174, 179, 180 % of control
dose: 100.0 mg/kg/injection, schedule: Q01DX009 (ip), vehicle: saline, evaluated on day 20
  T/C: 118 % of control
dose: 100.0 mg/kg/injection, schedule: Q01DX009 (ip), vehicle: saline, evaluated on day 30
  T/C: 112 % of control
dose: 100.0 mg/kg/injection, schedule: Q01DX009 (ip), vehicle: saline, evaluated on day 44
  T/C: 95 % of control
dose: 100.0 mg/kg/injection, schedule: Q01DX009 (ip), vehicle: saline, evaluated on day 45
  T/C: 171 % of control
dose: 100.0 mg/kg/injection, schedule: Q01DX009 (ip), vehicle: saline, evaluated on day 60
  T/C: 174 % of control
dose: 100.0 mg/kg/injection, schedule: Q01DX009 (ip), vehicle: sodium bicarbonate, evaluated on day 30
  T/C: 142 and 173 % of control
dose: 100.0 mg/kg/injection, schedule: Q01DX009 (ip), vehicle: sodium bicarbonate, evaluated on day 45
  T/C: 167, 170, 174 (2×), 187, 190, 198, 215, 218 % of control
dose: 100.0 mg/kg/injection, schedule: Q01DX009 (ip), vehicle: sodium bicarbonate, evaluated on day 60
  T/C: 176, 177, 193, 199 % of control
dose: 134.0 mg/kg/injection, schedule: Q04DX002 (ip), vehicle: sodium bicarbonate
  T/C: 127 % of control
dose: 150.0 mg/kg/injection, schedule: Q01DX009 (ip), vehicle: saline, evaluated on day 30
  T/C: 98 % of control [9 of 10 alive]
dose: 150.0 mg/kg/injection, schedule: Q01DX009 (ip), vehicle: saline, evaluated on day 45
  T/C: 102 % of control [9 of 10 alive]
dose: 150.0 mg/kg/injection, schedule: Q01DX009 (ip), vehicle: saline, evaluated on day 60
  T/C: 98 % of control [8 of 10 alive]
dose: 150.0 mg/kg/injection, schedule: Q01DX009 (ip), vehicle: saline
  survivor count: 6 of 6
dose: 150.0 mg/kg/injection, schedule: Q01DX009 (ip), vehicle: sodium bicarbonate, evaluated on day 30
  T/C: 103 and 149 % of control
dose: 150.0 mg/kg/injection, schedule: Q01DX009 (ip), vehicle: sodium bicarbonate, evaluated on day 45
  T/C: 182 [9 of 10 alive], 186 (3×), 195, 196, 208, 215, 228 % of control
dose: 150.0 mg/kg/injection, schedule: Q01DX009 (ip), vehicle: sodium bicarbonate, evaluated on day 60
  T/C: 195, 202, 205, 210 % of control
dose: 175.0 mg/kg/injection, schedule: Q01DX009 (ip), vehicle: sodium bicarbonate, evaluated on day 45
  T/C: 99, 100, 118, 185, 205 % of control
dose: 175.0 mg/kg/injection, schedule: Q01DX009 (ip), vehicle: sodium bicarbonate, evaluated on day 60
  T/C: 161 % of control
dose: 200.0 mg/kg/injection, schedule: Q01DX009 (ip), vehicle: saline
  survivor count: 2 of 6 and 3 of 6
dose: 200.0 mg/kg/injection, schedule: Q04DX002 (ip), vehicle: sodium bicarbonate
  T/C: 134 % of control

## O=C(NC1CC1)OCc1c(COC(=O)NC2CC2)c(-c2ccc(Cl)c(Cl)c2)n2c1CCC2
dose: 1.56 mg/kg/injection, schedule: Q01DX009 (ip), vehicle: distilled water + Tween-80
  T/C: 135 % of control
dose: 3.13 mg/kg/injection, schedule: Q01DX009 (ip), vehicle: distilled water + Tween-80
  T/C: 144 % of control
dose: 6.25 mg/kg/injection, schedule: Q01DX009 (ip), vehicle: distilled water + Tween-80
  T/C: 148 % of control
dose: 50.0 mg/kg/injection, schedule: Q01DX009 (ip), vehicle: distilled water + Tween-80
  survivor count: 5 of 6 and 6 of 6
dose: 100.0 mg/kg/injection, schedule: Q01DX009 (ip), vehicle: distilled water + Tween-80
  survivor count: 2 of 6
dose: 200.0 mg/kg/injection, schedule: Q01DX009 (ip), vehicle: distilled water + Tween-80
  survivor count: 1 of 6

## O=[C-]/C=C\[C-]=O.[C-]#[O+].[C-]#[O+].[C-]#[O+].[C-]#[O+].[Fe+2]
dose: 50.0 mg/kg/injection, schedule: Q01DX005 (ip), vehicle: saline with Tween-80
  survivor count: 0 of 6
dose: 100.0 mg/kg/injection, schedule: Q01DX005 (ip), vehicle: saline with Tween-80
  survivor count: 3 of 6
[1]
  survivor count: 0 of 6

## CC1=NCCCN(CCN(C)C)CCCN=C(C)C2CCCC1[N-]2.[Ni+2].[O-][Cl+3]([O-])([O-])O
dose: 50.0 mg/kg/injection, schedule: Q01DX001 (ip), vehicle: saline
  survivor count: 2 of 6
dose: 100.0 mg/kg/injection, schedule: Q01DX001 (ip), vehicle: saline
  survivor count: 0 of 6 and 1 of 6
dose: 200.0 mg/kg/injection, schedule: Q01DX001 (ip), vehicle: saline
  survivor count: 1 of 6
dose: 400.0 mg/kg/injection, schedule: Q01DX001 (ip), vehicle: saline
  survivor count: 0 of 6

## C[Si](C)(C)N=S=N[Si](C)(C)C
[1]
  survivor count: 2 of 6

## Cc1ccc(S(=O)(=O)C2(NC(=O)c3ccc(Cl)cc3)CC2)cc1
dose: 60.0 mg/kg/injection, schedule: Q01DX005 (ip), vehicle: Klucel (hydroxypropylcellulose) (HPC)
  survivor count: 6 of 6 (2×)
dose: 240.0 mg/kg/injection, schedule: Q01DX005 (ip), vehicle: Klucel (hydroxypropylcellulose) (HPC)
  survivor count: 6 of 6

## CC1(C)COCN1COCCCOCN1COCC1(C)C
dose: 50.0 mg/kg/injection, schedule: Q01DX009 (ip), vehicle: saline with Tween-80
  T/C: 127 % of control
dose: 100.0 mg/kg/injection, schedule: Q01DX009 (ip), vehicle: saline with Tween-80
  T/C: 127 % of control

## COc1cc([C@@H]2c3cc4c(cc3C[C@H]3COC(=O)[C@@H]32)OCO4)cc2c1OCO2
dose: 7.5 mg/kg/injection, schedule: Q01DX009 (ip), vehicle: distilled water + Tween-80
  T/C: 125 % of control
dose: 15.0 mg/kg/injection, schedule: Q01DX009 (ip), vehicle: Klucel (hydroxypropylcellulose) (HPC)
  survivor count: 6 of 6
dose: 30.0 mg/kg/injection, schedule: Q01DX009 (ip), vehicle: Klucel (hydroxypropylcellulose) (HPC)
  survivor count: 5 of 6
dose: 60.0 mg/kg/injection, schedule: Q01DX009 (ip), vehicle: Klucel (hydroxypropylcellulose) (HPC)
  survivor count: 0 of 6

## CNC(=S)c1cccc(-c2ccccn2)n1
dose: 100.0 mg/kg/injection, schedule: Q04DX003 (ip), vehicle: Klucel (hydroxypropylcellulose) (HPC)
  survivor count: 6 of 6
dose: 200.0 mg/kg/injection, schedule: Q04DX003 (ip), vehicle: Klucel (hydroxypropylcellulose) (HPC)
  survivor count: 3 of 6

## CC(C(O)c1ccc2cc(Br)c3ccccc3c2c1)N(C)C (stereo unspecified)
[1]
  survivor count: 1 of 6

## Clc1ccc(COCc2ccccc2Cn2ccnc2)cc1
dose: 240.0 mg/kg/injection, schedule: Q01DX005 (ip), vehicle: saline with Tween-80
  survivor count: 1 of 6

## CN(C)/N=N/c1ccn[nH]1
dose: 12.5 mg/kg/injection, schedule: Q01DX009 (ip), vehicle: saline with Tween-80
  T/C: 125 % of control
